Measurements reported in PubChem BioAssay AID1508597 (Cure First, 2020)

- Test: 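Survival screen with siRNA in ovarian cancer cells derived from patients, with or without rucaparib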 (primary screen)
- System: human ovarian carcinoma lines grown from tumours: OCI-P5x (papillary serous) and OCI-C5x (clear cell)
- Reagent: siRNA pool against human genes, 1.25 pmol siRNA per well
- Timing: 72 h or 96 h, depending on the cell culture
- Conditions: rucaparib 20 µM (about IC30) or vehicle, present until read-out
- Rucaparib or vehicle: Rucaparib
- Cell line: OCI-P5x (serous)
- Read-out: 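Luminescent ATP-based viability assay read 72 or 96 h after transfection, depending on culture, given as normalised percent viability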
- Direction: viability, normalised: higher = more viable cells remaining
- Rule for the call: 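Active when normalised viability falls below 80 percent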
- Calls: active = viability under 80%; inactive = viability 80% or more
This is a random part of the about 2,100 reagents, under one of the conditions tested. 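Calls flag viability under 80% in either arm, not effects specific to rucaparib; the reference for percent is not stated.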 Not stated in the record: the 100% reference.

For PLK3 (polo like kinase 3), technical replicate 1, what was measured?
viability, normalised (%): 117; outcome: inactive

How did the screen score PLK3 (polo like kinase 3), technical replicate 2?
viability, normalised (%): 130; outcome: inactive

For PLK3 (polo like kinase 3), technical replicate 3, how do the results read?
viability, normalised (%): 99.7; outcome: inactive

How did the screen score POLE3 (DNA polymerase epsilon 3, accessory subunit), technical replicate 1?
viability, normalised (%): 52; outcome: active

What did the screen give for POLE3 (DNA polymerase epsilon 3, accessory subunit), technical replicate 2?
viability, normalised (%): 47.5; outcome: active

How did the screen score POLE3 (DNA polymerase epsilon 3, accessory subunit), technical replicate 3?
viability, normalised (%): 46; outcome: active

What is on record for SGK3 (serum/glucocorticoid regulated kinase family member 3), technical replicate 1?
viability, normalised (%): 70.7; outcome: active

What is on record for SGK3 (serum/glucocorticoid regulated kinase family member 3), technical replicate 2?
viability, normalised (%): 75.3; outcome: active

Which result is listed for SGK3 (serum/glucocorticoid regulated kinase family member 3), technical replicate 3?
viability, normalised (%): 62.1; outcome: active

With PCDHB4 (protocadherin beta 4), technical replicate 1, what was measured?
viability, normalised (%): 47.5; outcome: active

What is on record for PCDHB4 (protocadherin beta 4), technical replicate 2?
viability, normalised (%): 58.3; outcome: active

For PCDHB4 (protocadherin beta 4), technical replicate 3, what was measured?
viability, normalised (%): 55.3; outcome: active

With JAK1 (Janus kinase 1), technical replicate 1, what does the deposit list?
viability, normalised (%): 39.7; outcome: active

With JAK1 (Janus kinase 1), technical replicate 2, what was measured?
viability, normalised (%): 70.7; outcome: active

Which result is listed for JAK1 (Janus kinase 1), technical replicate 3?
viability, normalised (%): 62.3; outcome: active

For MED8 (mediator complex subunit 8), technical replicate 1, what does the deposit list?
viability, normalised (%): 62.5; outcome: active

How did the screen score MED8 (mediator complex subunit 8), technical replicate 2?
viability, normalised (%): 64.6; outcome: active

What did the screen give for MED8 (mediator complex subunit 8), technical replicate 3?
viability, normalised (%): 68.5; outcome: active

How did the screen score ITPKA (inositol-trisphosphate 3-kinase A), technical replicate 1?
viability, normalised (%): 67.5; outcome: active

What is on record for ITPKA (inositol-trisphosphate 3-kinase A), technical replicate 2?
viability, normalised (%): 71; outcome: active

Which result is listed for ITPKA (inositol-trisphosphate 3-kinase A), technical replicate 3?
viability, normalised (%): 55.1; outcome: active

For IP6K1 (inositol hexakisphosphate kinase 1), technical replicate 1, how do the results read?
viability, normalised (%): 72.1; outcome: active

For IP6K1 (inositol hexakisphosphate kinase 1), technical replicate 2, how do the results read?
viability, normalised (%): 64.5; outcome: active

With IP6K1 (inositol hexakisphosphate kinase 1), technical replicate 3, what does the deposit list?
viability, normalised (%): 73.4; outcome: active

For CDKL5 (cyclin dependent kinase like 5), technical replicate 1, what was measured?
viability, normalised (%): 88.4; outcome: inactive

With CDKL5 (cyclin dependent kinase like 5), technical replicate 2, what does the deposit list?
viability, normalised (%): 94.7; outcome: inactive

With CDKL5 (cyclin dependent kinase like 5), technical replicate 3, how do the results read?
viability, normalised (%): 86.4; outcome: inactive

What did the screen give for DDX19B (DEAD-box helicase 19B), technical replicate 1?
viability, normalised (%): 61.3; outcome: active

For DDX19B (DEAD-box helicase 19B), technical replicate 2, what does the deposit list?
viability, normalised (%): 61.1; outcome: active

For DDX19B (DEAD-box helicase 19B), technical replicate 3, what was measured?
viability, normalised (%): 57.9; outcome: active

What did the screen give for PIK3R2 (phosphoinositide-3-kinase regulatory subunit 2), technical replicate 1?
viability, normalised (%): 121; outcome: inactive

How did the screen score PIK3R2 (phosphoinositide-3-kinase regulatory subunit 2), technical replicate 2?
viability, normalised (%): 85.7; outcome: inactive

What is on record for PIK3R2 (phosphoinositide-3-kinase regulatory subunit 2), technical replicate 3?
viability, normalised (%): 89.6; outcome: inactive

Targets above whose target name starts with J or j (3):
JAK1 (Janus kinase 1), technical replicate 1 → viability, normalised (%): 39.7; outcome: active
JAK1 (Janus kinase 1), technical replicate 2 → viability, normalised (%): 70.7; outcome: active
JAK1 (Janus kinase 1), technical replicate 3 → viability, normalised (%): 62.3; outcome: active
